# These are yes or no findings as the source states them, for the method shown. Binding seen in cells or lysates may run through a third protein. Some results given as binding are weak or reduced against the parent protein; the word gives no strength.
# B1: T172-phosphorylated CDK4, P11802 1-303 (enzyme)
# chain: MATSRYEPVAEIGVGAYGTVYKARDPHSGHFVALKSVRVPNGGGGGGGLPISTVREVALLRRLEAFEHPNVVRLMDVCATSRTDREIKVTLVFEHVDQDLRTYLDKAPPPGLPAETIKDLMRQFLRGLDFLHANCIVHRDLKPENILVTSGGTVKLADFGLARIYSYQMALTPVVVTLWYRAPEVLLQSTYATPVDMWSVGCIFAEMFRRKPLFCGNSEADQLGKIFDLIGLPPEDDWPRDVSLPRGAFPPRGPRPVQSVVPEMEESGAQLLLEMLTFNPHKRISAFRALQHSYLHKDEGNPE
# modifications: here or on the partner: phosphothreonine at 172 (T172)
# Target: p21 (human (endogenous in HNSCC cell lines)), P38936
# Assay: co-IP
# Conditions: remark: other sources report otherwise
binder,measurement,value
B1,binding,binds

# From paper doi:10.1101/2025.11.10.25339594
